Data on two sequences can be found in article PMC4176181.

Amino acid sequences for entries named in this document (tags omitted). A change or cut given only in a name is not applied to a line headed by its entry.
UniProt Q13472: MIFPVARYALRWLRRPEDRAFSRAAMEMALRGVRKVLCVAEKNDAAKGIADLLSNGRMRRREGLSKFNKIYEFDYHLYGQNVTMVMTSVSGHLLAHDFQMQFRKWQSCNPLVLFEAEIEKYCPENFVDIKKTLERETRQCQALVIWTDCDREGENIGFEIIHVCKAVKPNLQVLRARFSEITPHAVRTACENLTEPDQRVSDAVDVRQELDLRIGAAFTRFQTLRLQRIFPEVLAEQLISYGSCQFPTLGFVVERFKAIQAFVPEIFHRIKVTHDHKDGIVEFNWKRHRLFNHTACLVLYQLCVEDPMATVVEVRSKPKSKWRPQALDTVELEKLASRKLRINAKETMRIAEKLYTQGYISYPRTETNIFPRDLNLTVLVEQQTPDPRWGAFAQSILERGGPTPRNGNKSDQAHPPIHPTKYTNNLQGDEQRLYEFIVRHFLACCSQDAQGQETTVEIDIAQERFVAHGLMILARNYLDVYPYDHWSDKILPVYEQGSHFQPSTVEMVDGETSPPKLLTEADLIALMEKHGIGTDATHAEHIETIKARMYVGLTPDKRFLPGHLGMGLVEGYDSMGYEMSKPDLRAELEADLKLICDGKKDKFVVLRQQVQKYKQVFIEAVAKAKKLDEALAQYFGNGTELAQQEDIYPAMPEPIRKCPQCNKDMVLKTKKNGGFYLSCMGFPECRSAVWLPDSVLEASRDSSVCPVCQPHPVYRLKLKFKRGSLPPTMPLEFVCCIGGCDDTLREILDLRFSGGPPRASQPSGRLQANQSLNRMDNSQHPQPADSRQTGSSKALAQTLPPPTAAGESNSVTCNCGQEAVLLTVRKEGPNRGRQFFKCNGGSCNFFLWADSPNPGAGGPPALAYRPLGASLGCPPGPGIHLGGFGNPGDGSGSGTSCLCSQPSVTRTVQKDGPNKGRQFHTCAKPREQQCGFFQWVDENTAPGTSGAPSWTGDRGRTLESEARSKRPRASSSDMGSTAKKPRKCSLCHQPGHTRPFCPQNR
UniProt P54132: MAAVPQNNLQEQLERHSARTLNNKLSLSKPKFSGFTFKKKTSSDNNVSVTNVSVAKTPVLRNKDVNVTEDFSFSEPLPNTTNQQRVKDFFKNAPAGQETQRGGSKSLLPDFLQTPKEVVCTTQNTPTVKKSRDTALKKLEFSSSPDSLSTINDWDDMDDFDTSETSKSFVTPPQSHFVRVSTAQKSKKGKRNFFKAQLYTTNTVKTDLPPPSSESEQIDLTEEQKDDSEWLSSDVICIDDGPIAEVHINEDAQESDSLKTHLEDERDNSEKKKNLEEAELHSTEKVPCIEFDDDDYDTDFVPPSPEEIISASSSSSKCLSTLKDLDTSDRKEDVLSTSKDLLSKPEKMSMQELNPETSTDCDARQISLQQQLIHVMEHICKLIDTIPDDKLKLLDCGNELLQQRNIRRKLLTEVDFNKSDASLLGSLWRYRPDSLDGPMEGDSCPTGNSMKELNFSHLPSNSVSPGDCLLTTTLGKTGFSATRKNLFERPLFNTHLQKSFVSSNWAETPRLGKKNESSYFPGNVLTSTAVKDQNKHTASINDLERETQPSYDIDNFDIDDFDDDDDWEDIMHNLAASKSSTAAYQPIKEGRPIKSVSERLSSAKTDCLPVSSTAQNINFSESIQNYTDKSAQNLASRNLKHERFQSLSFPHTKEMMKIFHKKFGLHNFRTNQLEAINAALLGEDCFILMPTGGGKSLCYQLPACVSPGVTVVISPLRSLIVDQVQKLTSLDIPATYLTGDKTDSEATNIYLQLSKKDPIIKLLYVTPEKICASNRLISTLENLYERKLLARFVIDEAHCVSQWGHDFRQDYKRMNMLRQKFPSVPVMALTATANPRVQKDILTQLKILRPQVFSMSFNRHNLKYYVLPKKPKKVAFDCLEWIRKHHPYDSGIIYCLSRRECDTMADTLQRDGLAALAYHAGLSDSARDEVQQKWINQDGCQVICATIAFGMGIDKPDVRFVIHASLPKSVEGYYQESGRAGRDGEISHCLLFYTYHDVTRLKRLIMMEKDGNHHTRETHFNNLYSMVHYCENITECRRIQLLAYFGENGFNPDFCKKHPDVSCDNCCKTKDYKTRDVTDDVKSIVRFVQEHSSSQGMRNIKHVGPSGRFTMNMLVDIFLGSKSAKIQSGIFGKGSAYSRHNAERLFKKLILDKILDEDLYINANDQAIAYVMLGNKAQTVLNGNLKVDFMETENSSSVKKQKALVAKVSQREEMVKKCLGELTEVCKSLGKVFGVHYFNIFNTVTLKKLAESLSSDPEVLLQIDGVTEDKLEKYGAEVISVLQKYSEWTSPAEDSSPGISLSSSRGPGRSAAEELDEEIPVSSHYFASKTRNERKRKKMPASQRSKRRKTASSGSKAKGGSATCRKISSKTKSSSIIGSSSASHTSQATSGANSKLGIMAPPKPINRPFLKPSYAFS

Construct, isoform or probe ends are uncertain for at least one entry. For part of these data: No signal at the amounts used counts as a negative. For part of these data: Tags and fusion partners may be left off the protein sequences shown. For part of these data: A weaker result is weaker than the reference pair of the same experiment. For part of these data: At least one verdict was read from the data and is not stated in words by the source.

Common to all, as to assay: EMSA
On the technique in general: A gel shift assay detects complexes by their altered migration in electrophoresis.

One data set concerns the target Topo IIIα (Homo sapiens) (UniProt Q13472). As to conditions: 25-100 nM protein, streptavidin on both ends, shift only at highest concentration; 5' biotin on both strands (PSOL7475, PSOL6214), streptavidin bound; EMSA: 35 mM Tris-HCl pH 7.5, 1 mM DTT, 100 ng/μl BSA, 2 mM MgCl2, 100 mM NaCl, 25°C, 20 min, 5 nM DNA ends (Mg2+ and ATP omitted in Figure 3B); recombinant protein; label: 32P.

The target in data set [1] is T1, DNA2-D277A (Homo sapiens) (UniProt P51530).
T1 sequence (looked up, limits assumed): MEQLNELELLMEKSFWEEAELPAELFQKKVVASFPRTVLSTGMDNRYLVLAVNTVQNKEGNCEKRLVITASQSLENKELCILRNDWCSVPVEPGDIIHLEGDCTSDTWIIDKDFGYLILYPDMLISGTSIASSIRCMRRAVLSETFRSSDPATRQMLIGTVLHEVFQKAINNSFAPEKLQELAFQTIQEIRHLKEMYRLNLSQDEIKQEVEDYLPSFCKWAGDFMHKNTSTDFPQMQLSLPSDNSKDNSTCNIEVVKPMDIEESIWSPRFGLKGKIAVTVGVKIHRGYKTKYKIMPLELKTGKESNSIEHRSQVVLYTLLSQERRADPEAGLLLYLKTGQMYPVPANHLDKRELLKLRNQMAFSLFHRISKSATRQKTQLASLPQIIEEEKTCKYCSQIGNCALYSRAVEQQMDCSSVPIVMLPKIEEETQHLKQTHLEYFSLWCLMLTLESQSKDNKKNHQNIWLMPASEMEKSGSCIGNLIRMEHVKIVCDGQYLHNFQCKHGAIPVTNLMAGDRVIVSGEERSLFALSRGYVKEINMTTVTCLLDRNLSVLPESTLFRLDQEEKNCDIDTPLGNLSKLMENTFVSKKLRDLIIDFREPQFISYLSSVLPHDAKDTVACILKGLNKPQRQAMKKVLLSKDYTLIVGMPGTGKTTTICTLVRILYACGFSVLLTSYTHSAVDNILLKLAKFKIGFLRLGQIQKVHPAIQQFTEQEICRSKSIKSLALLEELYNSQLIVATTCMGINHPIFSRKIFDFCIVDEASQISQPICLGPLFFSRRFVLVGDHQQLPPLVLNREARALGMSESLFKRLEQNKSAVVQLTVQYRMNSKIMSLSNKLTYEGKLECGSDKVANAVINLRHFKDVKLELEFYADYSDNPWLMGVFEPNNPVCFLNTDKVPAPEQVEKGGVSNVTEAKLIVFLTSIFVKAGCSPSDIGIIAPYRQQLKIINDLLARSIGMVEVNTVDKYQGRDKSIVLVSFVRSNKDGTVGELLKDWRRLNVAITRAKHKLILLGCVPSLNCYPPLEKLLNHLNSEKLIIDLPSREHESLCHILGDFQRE
To be noted: 10-20 nM DNA2-D277A alone, no ATP, no Mg2+; EMSA: 35 mM Tris-HCl pH 7.5, 1 mM DTT, 100 ng/μl BSA, 2 mM MgCl2, 100 mM NaCl, 25°C, 20 min, 5 nM DNA ends (Mg2+ and ATP omitted in Figure 3B); recombinant protein; protein details: C-terminal Flag (pFastBacHTB vector); label: 32P.

In another data set the target is BLM (Homo sapiens) (UniProt P54132). As to conditions: 7.5-15 nM BLM, no ATP, no Mg2+; EMSA: 35 mM Tris-HCl pH 7.5, 1 mM DTT, 100 ng/μl BSA, 2 mM MgCl2, 100 mM NaCl, 25°C, 20 min, 5 nM DNA ends (Mg2+ and ATP omitted in Figure 3B); recombinant protein; label: 32P.

Regarding “TTGATAAGAGGTCATTTGAATTCATGGCTTAGAGCTTAATTGCTGAATCTGGTGCTGGGATCCAACATGTTTTAAATATG (double strand) [80-mer dsDNA, both ends blocked by biotin-streptavidin]”, the binding result with Topo IIIα (Homo sapiens) is “binds more weakly”.

Regarding “TTGATAAGAGGTCATTTGAATTCATGGCTTAGAGCTTAATTGCTGAATCTGGTGCTGGGATCCAACATGTTTTAAATATG (double strand) [80-mer dsDNA]”, the figures for the binding result (in data set [1]; with BLM (Homo sapiens)) were “no binding” and “binds”, respectively.
